Mtb heat-shock: 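Assay on Mycobacterium tuberculosis, filed only as a heat shock assay from Cornell; the read-out is not stated. The concentration is filed as 10 mM, unlikely as a test dose, so the dose is not known. Higher reads as stronger inhibition (inferred: compounds with an IC50 in retests scored well above the rest). Size under these conditions: about 69,000 compounds, about 930 of them at 50% or above in at least one test.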
Mtb growth Cornell: 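Whole-cell assay for inhibitors of Mycobacterium tuberculosis growth, labelled Cornell in the record; the read-out is not stated. The concentration is filed as 10 mM, unlikely as a test dose, so the dose is not known. The record gives no direction; compounds strong in two other growth screens of this library score well above the rest, so higher reads as stronger inhibition. Size under these conditions: about 53,000 compounds, about 900 of them at 50% or above in at least one test.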

Values are the deposited “Percent Effect”, in %. How 0% and 100% were set is not recorded. Most values in the screen are low, and negative values occur. Compounds were drawn at random from those tested, without regard to their results.

* CC(CC1CC1)NCCCN1CCCN(C)CC1 (centres undefined) : Mtb heat-shock: -13.42%; Mtb growth Cornell: 31.4%
* CCSc1ccccc1C(=O)NCCn1nc(C(F)(F)F)n(C)c1=O : Mtb heat-shock: 3.449%; Mtb growth Cornell: 15.59%
* CC(C)c1nnc2n1CC(CNCc1cccnc1)CC2 (centres undefined) : Mtb heat-shock: -38.13%; Mtb growth Cornell: 7.004%
* Cc1nn(C)c(N2CCOCC2)c1CNC1CCOc2ccccc21 (centres undefined) : Mtb heat-shock: -2.811%; Mtb growth Cornell: 15.28%
* Cc1ccc2c(n1)N(CCN(C)C)CCN(C(=O)c1ccco1)C2 : Mtb heat-shock: 4.69%; Mtb growth Cornell: -33.91%
* Cc1nc(COCC2CN(C(=O)N(C)C)Cc3nccn3C2)cs1.O=C(O)C(F)(F)F (centres undefined) : Mtb heat-shock: 9.448%; Mtb growth Cornell: 19.06%
* N#Cc1cccc(OCCN2CCOC(Cn3cccn3)C2)c1 (centres undefined) : Mtb heat-shock: -3.481%; Mtb growth Cornell: -8.906%
* CCN1CC(CN2CCOCC2)Oc2ncccc2C1=O (centres undefined) : Mtb heat-shock: -25.49%; Mtb growth Cornell: -36.03%
* O=C1CC(c2ccccc2)C2(CCN(Cc3ccccn3)CC2)N1 (centres undefined) : Mtb heat-shock: -10.63%; Mtb growth Cornell: 1.787%
* COCCN1CCCC(Cc2cnc(-c3c(C)nn(C)c3C)cn2)C1 (centres undefined) : Mtb heat-shock: -11.69%; Mtb growth Cornell: 0.374%
* O=C(c1coc(-c2ccccc2)n1)N1CCCCC1 : Mtb heat-shock: -62.95%
* O=C(O)C(F)(F)F.[H][C@@]12CN(CC3CCOC3)C[C@]1([H])OCCN2c1cccnc1 (some centres undefined) : Mtb heat-shock: 29.14%; Mtb growth Cornell: -23.3%
* Cc1cnc(CC2COCCN(C(=O)CN3CCOCC3)C2)cn1 (centres undefined) : Mtb heat-shock: 3.611%; Mtb growth Cornell: 28.18%
* FC(F)(F)C1CCCn2c(CNCc3ccsc3)nnc21 (centres undefined) : Mtb heat-shock: -1.913%; Mtb growth Cornell: 17.11%
* Nc1cc(-c2cc(O)cc(C(=O)O)c2)c2cc[nH]c2n1 : Mtb heat-shock: 1.35%; Mtb growth Cornell: 27.5%
* O=C(O)C(F)(F)F.[H][C@@]12CCN(C(C)C)C[C@]1([H])CN(C(=O)c1ccc(C)nc1)C2 : Mtb heat-shock: -9.3%
* C=C(C)COc1cccc(CN(C)C(C)c2nccs2)c1 (centres undefined) : Mtb heat-shock: -11.05%; Mtb growth Cornell: 41.36%
* CC(C)Nc1ncnc2c1CCNCC2 : Mtb heat-shock: -8.175%; Mtb growth Cornell: 20.09%
* N#Cc1ccc(N2CCCN(c3nccs3)CC2)nc1 : Mtb heat-shock: -2.199%; Mtb growth Cornell: 5.302%
* Cn1ccnc1C(NCc1ccc(Br)cc1)c1ccccc1 (centres undefined) : Mtb heat-shock: 112.1%
* [H][C@@]12C[C@@H](OCc3ccccn3)CN1CCN(C(=O)c1cnccn1)C2 : Mtb heat-shock: 12.01%; Mtb growth Cornell: 12.89%
* O=C(c1cccnc1)N1CCC2(CC1)CCN(Cc1ccccn1)C2=O : Mtb heat-shock: -9.659%
* [H][C@@]12COC[C@]1(COc1ccc(C#N)cn1)CN(Cc1ccc(C)o1)C2 : Mtb heat-shock: -13.61%; Mtb growth Cornell: -9.424%
* CC(CCN1CCC(n2cc(CCO)nn2)CC1)c1ccccc1 (centres undefined) : Mtb heat-shock: 2.772%
* NCCCC(=O)NCC1(O)CCCN(c2ccnc3cccnc23)C1 (centres undefined) : Mtb heat-shock: -0.4581%; Mtb growth Cornell: -16.77%
* Cc1ccc(CNCc2ccc(N3CCC(CO)CC3)nc2)c(C)c1.Cl : Mtb heat-shock: -13.7%; Mtb growth Cornell: 10.42%
* N[C@@H]1c2ccccc2C2(CCN(C(=O)c3cncc(Cl)c3)CC2)[C@H]1O : Mtb heat-shock: -1.886%; Mtb growth Cornell: -33.77%

Once more, the final 2:

{"smiles": "Cc1ccc(CNCc2ccc(N3CCC(CO)CC3)nc2)c(C)c1.Cl", "Mtb heat-shock": -13.7, "Mtb growth Cornell": 10.42}
{"smiles": "N[C@@H]1c2ccccc2C2(CCN(C(=O)c3cncc(Cl)c3)CC2)[C@H]1O", "Mtb heat-shock": -1.886, "Mtb growth Cornell": -33.77}

From ChEMBL document CHEMBL3988442, “University of Dundee, Small-Polar-MMV Screening Library” (2021).